Data taken from US20230233520A1, “COMBINATION THERAPY OF ARTEMISININ-RELATED COMPOUNDS AND HISTONE DEACETYLASE INHIBITORS FOR TREATMENT OF HPV-RELATED BENIGN, PREMALIGNANT, AND MALIGNANT DISEASES” (Georgetown University, priority 2020, published 2023).
pIC50: −log10 of the molar value.

How the values were obtained:
HeLa cells = test: CELLTITER-GLO cell viability, drugs alone and in combination (Example 4); assay type: cell-based; conditions: Homo sapiens, SAHA alone
Experimental: (§1) The cell lines were treated with artesunate, vorinostat, and panobinostat individually and in combination. The IC50 values were calculated from the cell viability assays for each drug alone and in combination. […] Cells were then incubated for a 24-hour period to allow them to adhere to the wells. The cells were then treated with various concentrations of artesunate, panobinostat, and vorinostat. For the experiments involving artesunate and panobinostat, the concentrations used varied by cell type. […] After an incubation time of 72 hours, the CELLTITER-GLO® Luminescent Cell Viability Assay (Promega) was conducted. The buffer/enzyme solution was mixed and applied to the cells according to the Promega protocol. Cells were then placed on the orbital shaker for 2 minutes and then placed in the luminometer for reading. To analyze the data, the background (from only the DMEM media) was subtracted from the luminescence of each well. […] All readings were normalized based upon the control values. […] Analyses were conducted using GraphPad Prism 9. The combination index and dose-reduction index values were calculated based using the summary of the data for all three cell types. […] The combination index and dose-reduction index values were calculated based using the summary of the data for all three cell types. […]

SiHa cells = test: as above; assay type: cell-based; conditions: Homo sapiens, SAHA alone
Experimental: as §1

pIC50 (HeLa cells): 5.86
SMILES: O=C(CCCCCCC(=O)Nc1ccccc1)NO [vorinostat]
pIC50 (SiHa cells): 5.74
